From the supplement of paper PMC7666118
The other results are listed elsewhere or left out.

Protein sequences, listed by entry. Tags and fused reporters are not part of them. Lines headed by an entry give the natural chain unless they say otherwise; changes in a name come on top.
UniProt Q9NWQ8: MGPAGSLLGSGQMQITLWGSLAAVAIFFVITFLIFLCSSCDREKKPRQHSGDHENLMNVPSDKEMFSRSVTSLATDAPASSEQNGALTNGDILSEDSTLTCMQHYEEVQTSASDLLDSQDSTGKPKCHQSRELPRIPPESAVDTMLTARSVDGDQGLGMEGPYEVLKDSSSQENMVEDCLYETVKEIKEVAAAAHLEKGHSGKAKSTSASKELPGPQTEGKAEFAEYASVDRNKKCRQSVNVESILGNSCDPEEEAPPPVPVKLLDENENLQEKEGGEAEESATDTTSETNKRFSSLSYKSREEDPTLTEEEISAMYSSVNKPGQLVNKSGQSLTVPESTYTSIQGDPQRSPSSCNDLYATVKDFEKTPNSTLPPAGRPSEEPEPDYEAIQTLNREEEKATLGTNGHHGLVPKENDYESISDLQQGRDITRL
UniProt O96011: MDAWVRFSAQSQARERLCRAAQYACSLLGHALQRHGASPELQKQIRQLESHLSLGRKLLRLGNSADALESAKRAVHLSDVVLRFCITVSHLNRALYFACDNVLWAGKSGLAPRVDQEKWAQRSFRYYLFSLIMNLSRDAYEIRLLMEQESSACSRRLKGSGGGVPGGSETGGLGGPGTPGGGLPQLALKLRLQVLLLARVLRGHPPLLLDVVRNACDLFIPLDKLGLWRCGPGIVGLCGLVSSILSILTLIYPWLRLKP
UniProt P40855: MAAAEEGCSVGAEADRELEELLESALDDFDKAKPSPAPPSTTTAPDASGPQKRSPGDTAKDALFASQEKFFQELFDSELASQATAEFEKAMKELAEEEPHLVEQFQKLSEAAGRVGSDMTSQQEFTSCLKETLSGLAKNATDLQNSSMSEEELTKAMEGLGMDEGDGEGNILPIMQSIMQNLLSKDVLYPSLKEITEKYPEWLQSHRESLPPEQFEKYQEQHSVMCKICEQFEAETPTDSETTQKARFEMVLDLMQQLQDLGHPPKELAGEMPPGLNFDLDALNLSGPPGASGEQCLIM
UniProt Q13370: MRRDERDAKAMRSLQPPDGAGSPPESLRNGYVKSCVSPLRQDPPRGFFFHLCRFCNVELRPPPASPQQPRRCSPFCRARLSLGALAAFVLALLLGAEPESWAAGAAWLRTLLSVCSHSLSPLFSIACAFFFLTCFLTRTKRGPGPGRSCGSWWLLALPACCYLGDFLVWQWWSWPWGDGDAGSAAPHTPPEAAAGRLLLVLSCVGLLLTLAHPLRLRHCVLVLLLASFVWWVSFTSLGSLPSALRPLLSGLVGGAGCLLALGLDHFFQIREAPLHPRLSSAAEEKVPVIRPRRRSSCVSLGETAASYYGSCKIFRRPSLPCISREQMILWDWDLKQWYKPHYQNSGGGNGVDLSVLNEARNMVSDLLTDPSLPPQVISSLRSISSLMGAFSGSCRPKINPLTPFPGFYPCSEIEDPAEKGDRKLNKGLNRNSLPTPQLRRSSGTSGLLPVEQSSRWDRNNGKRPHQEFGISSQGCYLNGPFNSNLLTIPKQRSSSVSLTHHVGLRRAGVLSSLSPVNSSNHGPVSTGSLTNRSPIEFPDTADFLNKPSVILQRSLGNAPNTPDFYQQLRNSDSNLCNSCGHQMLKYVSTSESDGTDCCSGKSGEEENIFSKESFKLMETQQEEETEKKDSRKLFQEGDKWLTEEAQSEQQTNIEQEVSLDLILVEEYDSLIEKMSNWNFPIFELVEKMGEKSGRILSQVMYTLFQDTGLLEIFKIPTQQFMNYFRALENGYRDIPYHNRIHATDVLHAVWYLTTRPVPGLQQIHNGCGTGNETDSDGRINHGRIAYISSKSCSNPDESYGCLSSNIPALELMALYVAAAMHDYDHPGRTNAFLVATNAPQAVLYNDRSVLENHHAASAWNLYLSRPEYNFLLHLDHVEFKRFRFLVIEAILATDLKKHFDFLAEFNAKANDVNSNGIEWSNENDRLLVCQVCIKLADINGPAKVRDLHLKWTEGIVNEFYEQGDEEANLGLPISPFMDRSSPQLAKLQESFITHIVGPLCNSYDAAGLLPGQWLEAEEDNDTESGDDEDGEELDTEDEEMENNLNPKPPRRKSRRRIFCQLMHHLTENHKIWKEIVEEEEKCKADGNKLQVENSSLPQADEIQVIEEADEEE
UniProt P13667: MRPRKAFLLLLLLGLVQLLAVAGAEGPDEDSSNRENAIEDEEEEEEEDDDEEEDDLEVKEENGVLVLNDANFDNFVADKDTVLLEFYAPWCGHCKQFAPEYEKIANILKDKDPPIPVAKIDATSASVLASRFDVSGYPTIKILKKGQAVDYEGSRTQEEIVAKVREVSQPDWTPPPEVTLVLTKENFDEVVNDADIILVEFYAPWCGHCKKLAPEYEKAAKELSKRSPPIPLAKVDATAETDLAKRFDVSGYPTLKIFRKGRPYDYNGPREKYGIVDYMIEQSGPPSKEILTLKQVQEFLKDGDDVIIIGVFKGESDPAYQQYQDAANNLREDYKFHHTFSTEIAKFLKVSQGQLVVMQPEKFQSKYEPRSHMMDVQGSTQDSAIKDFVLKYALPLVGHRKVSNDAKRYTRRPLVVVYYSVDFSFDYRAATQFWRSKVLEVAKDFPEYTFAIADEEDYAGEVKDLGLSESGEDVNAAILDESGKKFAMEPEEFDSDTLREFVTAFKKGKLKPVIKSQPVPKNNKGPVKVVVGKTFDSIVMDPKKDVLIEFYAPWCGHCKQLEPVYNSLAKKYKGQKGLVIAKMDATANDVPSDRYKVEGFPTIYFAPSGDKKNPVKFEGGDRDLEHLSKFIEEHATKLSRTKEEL
UniProt Q13608: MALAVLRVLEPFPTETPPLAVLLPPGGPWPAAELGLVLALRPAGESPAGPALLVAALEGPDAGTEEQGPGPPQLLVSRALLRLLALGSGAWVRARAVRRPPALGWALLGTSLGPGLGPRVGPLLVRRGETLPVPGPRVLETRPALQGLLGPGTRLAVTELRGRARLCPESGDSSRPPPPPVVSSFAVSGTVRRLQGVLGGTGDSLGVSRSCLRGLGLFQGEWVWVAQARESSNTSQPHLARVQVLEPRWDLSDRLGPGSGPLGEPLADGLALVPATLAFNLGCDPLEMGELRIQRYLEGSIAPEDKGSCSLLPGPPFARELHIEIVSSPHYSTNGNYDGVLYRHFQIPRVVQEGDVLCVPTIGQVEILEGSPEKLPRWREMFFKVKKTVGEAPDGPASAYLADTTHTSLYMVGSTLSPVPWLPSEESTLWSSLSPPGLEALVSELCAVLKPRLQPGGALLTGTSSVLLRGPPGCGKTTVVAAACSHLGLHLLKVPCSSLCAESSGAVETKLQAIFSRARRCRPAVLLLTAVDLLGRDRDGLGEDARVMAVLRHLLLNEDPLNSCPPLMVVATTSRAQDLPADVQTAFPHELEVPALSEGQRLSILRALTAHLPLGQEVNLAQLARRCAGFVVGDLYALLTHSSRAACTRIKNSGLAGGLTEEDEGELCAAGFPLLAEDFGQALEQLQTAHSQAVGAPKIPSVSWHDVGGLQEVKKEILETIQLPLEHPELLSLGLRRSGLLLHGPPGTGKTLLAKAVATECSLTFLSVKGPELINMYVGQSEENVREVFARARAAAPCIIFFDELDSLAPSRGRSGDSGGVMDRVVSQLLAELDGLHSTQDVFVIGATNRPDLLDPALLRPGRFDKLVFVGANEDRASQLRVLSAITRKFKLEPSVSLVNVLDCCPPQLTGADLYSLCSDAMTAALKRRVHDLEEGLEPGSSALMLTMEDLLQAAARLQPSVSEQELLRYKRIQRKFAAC
UniProt P52948: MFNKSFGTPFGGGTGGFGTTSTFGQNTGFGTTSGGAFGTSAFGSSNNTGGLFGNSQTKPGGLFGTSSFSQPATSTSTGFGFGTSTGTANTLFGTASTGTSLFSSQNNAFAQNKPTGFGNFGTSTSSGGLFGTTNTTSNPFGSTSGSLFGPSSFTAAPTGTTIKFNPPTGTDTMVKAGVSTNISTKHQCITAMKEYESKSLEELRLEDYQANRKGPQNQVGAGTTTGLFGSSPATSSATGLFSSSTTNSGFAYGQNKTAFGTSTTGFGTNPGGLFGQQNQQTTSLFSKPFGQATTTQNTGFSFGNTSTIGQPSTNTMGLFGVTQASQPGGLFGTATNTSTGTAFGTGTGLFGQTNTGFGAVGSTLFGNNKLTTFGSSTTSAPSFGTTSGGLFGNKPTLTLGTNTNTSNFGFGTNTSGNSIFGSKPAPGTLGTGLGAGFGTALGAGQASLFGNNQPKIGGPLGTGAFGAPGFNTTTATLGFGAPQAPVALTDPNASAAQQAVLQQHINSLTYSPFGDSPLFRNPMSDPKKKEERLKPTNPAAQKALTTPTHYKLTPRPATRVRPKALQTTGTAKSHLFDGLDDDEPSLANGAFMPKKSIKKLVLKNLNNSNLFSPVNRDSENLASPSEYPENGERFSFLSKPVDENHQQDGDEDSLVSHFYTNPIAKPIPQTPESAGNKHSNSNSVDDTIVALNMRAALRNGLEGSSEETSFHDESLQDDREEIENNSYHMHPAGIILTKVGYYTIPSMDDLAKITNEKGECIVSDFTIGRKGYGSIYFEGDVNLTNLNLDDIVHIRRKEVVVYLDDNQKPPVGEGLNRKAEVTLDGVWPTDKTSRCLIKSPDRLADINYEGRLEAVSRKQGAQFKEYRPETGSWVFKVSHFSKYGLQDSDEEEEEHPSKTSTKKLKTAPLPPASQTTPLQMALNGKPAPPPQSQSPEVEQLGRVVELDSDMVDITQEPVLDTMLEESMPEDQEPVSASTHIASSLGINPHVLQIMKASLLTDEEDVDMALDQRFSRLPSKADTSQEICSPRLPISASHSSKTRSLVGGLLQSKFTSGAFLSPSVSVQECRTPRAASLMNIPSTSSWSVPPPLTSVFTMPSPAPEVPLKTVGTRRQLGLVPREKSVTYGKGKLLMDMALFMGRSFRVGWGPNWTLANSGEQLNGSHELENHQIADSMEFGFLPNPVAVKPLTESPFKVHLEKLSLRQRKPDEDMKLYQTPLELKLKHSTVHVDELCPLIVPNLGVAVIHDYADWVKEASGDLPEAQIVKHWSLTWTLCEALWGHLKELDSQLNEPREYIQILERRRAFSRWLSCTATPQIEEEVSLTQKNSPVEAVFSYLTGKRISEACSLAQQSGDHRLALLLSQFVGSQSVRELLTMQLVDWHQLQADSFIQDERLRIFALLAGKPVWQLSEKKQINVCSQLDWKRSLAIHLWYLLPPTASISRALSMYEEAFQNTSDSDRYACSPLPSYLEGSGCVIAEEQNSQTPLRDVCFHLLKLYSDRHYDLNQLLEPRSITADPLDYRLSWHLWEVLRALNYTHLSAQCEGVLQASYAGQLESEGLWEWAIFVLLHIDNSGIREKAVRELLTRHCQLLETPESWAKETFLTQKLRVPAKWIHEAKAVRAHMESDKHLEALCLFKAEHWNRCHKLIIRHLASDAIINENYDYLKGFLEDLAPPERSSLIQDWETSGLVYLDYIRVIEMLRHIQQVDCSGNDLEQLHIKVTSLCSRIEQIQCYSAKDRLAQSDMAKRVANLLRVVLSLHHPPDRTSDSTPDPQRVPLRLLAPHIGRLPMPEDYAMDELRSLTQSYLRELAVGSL
UniProt Q96D31, whole entry, looked up: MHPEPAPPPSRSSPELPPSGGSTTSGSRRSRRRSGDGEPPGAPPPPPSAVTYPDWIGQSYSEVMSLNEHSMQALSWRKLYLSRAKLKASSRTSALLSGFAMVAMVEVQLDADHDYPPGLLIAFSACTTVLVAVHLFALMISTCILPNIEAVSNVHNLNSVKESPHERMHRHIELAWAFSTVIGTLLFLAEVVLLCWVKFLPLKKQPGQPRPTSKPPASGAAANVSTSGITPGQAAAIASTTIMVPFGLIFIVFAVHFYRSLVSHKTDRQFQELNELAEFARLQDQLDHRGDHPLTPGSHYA
UniProt Q8WVJ2: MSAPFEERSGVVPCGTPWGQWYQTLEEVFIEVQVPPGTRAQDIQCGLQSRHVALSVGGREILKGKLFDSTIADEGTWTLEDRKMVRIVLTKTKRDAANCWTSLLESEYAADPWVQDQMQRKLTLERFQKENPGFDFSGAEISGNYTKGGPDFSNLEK
UniProt Q14554: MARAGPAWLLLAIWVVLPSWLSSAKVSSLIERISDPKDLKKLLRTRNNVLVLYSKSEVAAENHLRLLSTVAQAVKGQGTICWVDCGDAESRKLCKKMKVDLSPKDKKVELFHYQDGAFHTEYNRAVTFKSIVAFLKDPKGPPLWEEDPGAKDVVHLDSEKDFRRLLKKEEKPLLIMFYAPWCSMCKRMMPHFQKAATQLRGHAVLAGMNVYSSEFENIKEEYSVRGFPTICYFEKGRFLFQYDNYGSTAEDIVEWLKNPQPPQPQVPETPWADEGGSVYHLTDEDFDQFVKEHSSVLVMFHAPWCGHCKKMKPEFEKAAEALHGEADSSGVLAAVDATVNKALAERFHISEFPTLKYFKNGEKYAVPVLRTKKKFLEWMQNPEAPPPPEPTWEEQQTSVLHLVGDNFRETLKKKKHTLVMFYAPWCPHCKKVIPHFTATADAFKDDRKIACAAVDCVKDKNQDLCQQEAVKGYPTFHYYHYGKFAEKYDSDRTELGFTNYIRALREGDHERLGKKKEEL

What follows are targets tested with COc1ccc(Cn2ccc3ccc(C(=O)NO)cc32)cc1 (assay: dose-dependent thermal stabilisation call (2D-TPP, DLPTP, 10% FDR) (binary (1 = stabilised)); higher = stabilised by the compound). Settings: system: HL-60 intact cells; concentration range 0.04-10 µM.

PAG1 (UniProt Q9NWQ8) was tested. Which “dose-dependent thermal stabilisation call” value did it give?
The value was inactive: 0.

With OBFC1 (UniProt Q9H668) as the target, how does the “dose-dependent thermal stabilisation call” value read?
The value was inactive: 0.

PAFAH1B3 (UniProt Q15102) was tested. Which “dose-dependent thermal stabilisation call” value did it give?
Its value is inactive: 0.

For PAK1IP1 (UniProt Q9NWT1), which “dose-dependent thermal stabilisation call” value is on record?
The value was inactive: 0.

With PEX11B (UniProt O96011) as the target, how does the “dose-dependent thermal stabilisation call” value read?
Its value is inactive: 0.

With NUDCD3 (UniProt Q8IVD9) as the target, how does the “dose-dependent thermal stabilisation call” value read?
Its value is inactive: 0.

Which “dose-dependent thermal stabilisation call” value does the source give for NVL (UniProt O15381) here?
The value was inactive: 0.

How did the “dose-dependent thermal stabilisation call” value turn out when PELP1 (UniProt Q8IZL8) was run?
Its value is inactive: 0.

How did the “dose-dependent thermal stabilisation call” value turn out when PFDN2 (UniProt Q9UHV9) was run?
The value was inactive: 0.

Which “dose-dependent thermal stabilisation call” value does the source give for OGT (UniProt O15294) here?
The value was inactive: 0.

Which “dose-dependent thermal stabilisation call” value does the source give for PDE5A (UniProt O76074) here?
Its value is inactive: 0.

How did the “dose-dependent thermal stabilisation call” value turn out when NUP133 (UniProt Q8WUM0) was run?
The value was inactive: 0.

For PARN (UniProt O95453), which “dose-dependent thermal stabilisation call” value is on record?
The value was inactive: 0.

With PEX19 (UniProt P40855) as the target, how does the “dose-dependent thermal stabilisation call” value read?
The value was inactive: 0.

With PARS2 (UniProt Q7L3T8) as the target, how does the “dose-dependent thermal stabilisation call” value read?
The value was inactive: 0.

For ODF2 (UniProt Q5BJF6), which “dose-dependent thermal stabilisation call” value is on record?
The value was inactive: 0.

Which “dose-dependent thermal stabilisation call” value does the source give for PDE3B (UniProt Q13370) here?
The value was inactive: 0.

With OGFOD1 (UniProt Q8N543) as the target, how does the “dose-dependent thermal stabilisation call” value read?
The value was inactive: 0.

How did the “dose-dependent thermal stabilisation call” value turn out when PDIA6 (UniProt Q15084) was run?
Its value is inactive: 0.

How did the “dose-dependent thermal stabilisation call” value turn out when OGFOD2 (UniProt Q6N063) was run?
Its value is inactive: 0.

With NR2C2 (UniProt P49116) as the target, how does the “dose-dependent thermal stabilisation call” value read?
Its value is inactive: 0.

How did the “dose-dependent thermal stabilisation call” value turn out when PDIA4 (UniProt P13667) was run?
Its value is inactive: 0.

For OMA1 (UniProt Q96E52), which “dose-dependent thermal stabilisation call” value is on record?
Its value is inactive: 0.

Which “dose-dependent thermal stabilisation call” value does the source give for ORC3L (UniProt Q9UBD5) here?
Its value is inactive: 0.

PEX6 (UniProt Q13608) was tested. Which “dose-dependent thermal stabilisation call” value did it give?
The value was inactive: 0.

With NUP98 (UniProt P52948) as the target, how does the “dose-dependent thermal stabilisation call” value read?
Its value is inactive: 0.

For PFKL (UniProt P17858), which “dose-dependent thermal stabilisation call” value is on record?
Its value is inactive: 0.

For PDCD11 (UniProt Q14690), which “dose-dependent thermal stabilisation call” value is on record?
The value was inactive: 0.

How did the “dose-dependent thermal stabilisation call” value turn out when NUFIP2 (UniProt Q7Z417) was run?
Its value is inactive: 0.

ORAI1 (UniProt Q96D31) was tested. Which “dose-dependent thermal stabilisation call” value did it give?
Its value is inactive: 0.

Which “dose-dependent thermal stabilisation call” value does the source give for NUDCD2 (UniProt Q8WVJ2) here?
The value was inactive: 0.

NUBPL (UniProt Q8TB37) was tested. Which “dose-dependent thermal stabilisation call” value did it give?
The value was inactive: 0.

NUDC (UniProt Q9Y266) was tested. Which “dose-dependent thermal stabilisation call” value did it give?
The value was inactive: 0.

For PDCD7 (UniProt Q8N8D1), which “dose-dependent thermal stabilisation call” value is on record?
Its value is inactive: 0.

With NUP54 (UniProt Q7Z3B4) as the target, how does the “dose-dependent thermal stabilisation call” value read?
The value was inactive: 0.

For PDCD4 (UniProt Q53EL6), which “dose-dependent thermal stabilisation call” value is on record?
Its value is inactive: 0.

Which “dose-dependent thermal stabilisation call” value does the source give for PDIA5 (UniProt Q14554) here?
The value was inactive: 0.
